Screen size: about 580,000 compounds; about 6,100 (1.1%) were called active. Inconclusive results, whose numbers are uncertain, are shown with a selection of clear calls. Calls follow the shape of the dose curve; as a rule, active = well fitted inhibition curve with a large enough effect; inconclusive = small, poorly fitted or top-dose-only effect, or another doubt; inactive = no such curve, though single readings can be large or run the other way. A potency beside an inconclusive call is a rough fit, not a confirmed value.
Each compound was assayed against Polyunsaturated fatty acid lipoxygenase ALOX12 (Homo sapiens) (UniProt P18054) (assay: Primary qHTS assay for inhibitors of human arachidonate 12S-lipoxygenase (ALOX12): Round 2). Details: purified 12hLO, xylenol orange hydroperoxide absorbance; activity change, negative = inhibition: at 108 µM (top of the series) unless noted.
Method in brief: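 Purified human 12hLO at 150 nM in 25 mM Hepes, 0.01% Triton X-100, pH 7.0, preincubated 15 min at room temperature with compound. Reaction started with 40 uM arachidonic acid, 30 min at room temperature. Hydroperoxide measured by Fe-xylenol orange, 573/405 nm absorbance ratio.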
% is scaled to controls: 0 for no effect and ±100 for the full control effect; potency is read from the fitted curve at half-maximal effect.

The chains behind the UniProt entries cited, without tags or fusion partners.
UniProt P18054, whole entry, looked up: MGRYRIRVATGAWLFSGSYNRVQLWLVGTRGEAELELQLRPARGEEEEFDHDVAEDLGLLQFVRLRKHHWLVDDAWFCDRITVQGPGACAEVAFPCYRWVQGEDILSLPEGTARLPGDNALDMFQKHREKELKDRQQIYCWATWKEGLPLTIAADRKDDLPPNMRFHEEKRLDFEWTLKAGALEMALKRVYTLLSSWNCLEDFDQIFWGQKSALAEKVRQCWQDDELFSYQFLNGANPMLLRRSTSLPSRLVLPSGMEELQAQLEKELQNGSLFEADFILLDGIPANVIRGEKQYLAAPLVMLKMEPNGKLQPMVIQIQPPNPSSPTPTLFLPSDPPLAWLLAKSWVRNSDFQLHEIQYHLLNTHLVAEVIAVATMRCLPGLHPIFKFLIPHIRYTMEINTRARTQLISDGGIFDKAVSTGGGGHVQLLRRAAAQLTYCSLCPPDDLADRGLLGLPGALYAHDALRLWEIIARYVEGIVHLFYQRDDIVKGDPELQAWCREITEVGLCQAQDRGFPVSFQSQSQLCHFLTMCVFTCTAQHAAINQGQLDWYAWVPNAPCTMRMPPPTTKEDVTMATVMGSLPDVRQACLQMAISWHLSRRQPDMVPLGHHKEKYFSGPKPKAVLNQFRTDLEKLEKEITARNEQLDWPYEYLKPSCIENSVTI

Row | SMILES | Potency | activity change, negative = inhibition
1 | COc1cc(/C=C/c2nc3cc(Cl)ccc3o2)cc(OC)c1OC | inconclusive: 31.6 µM [inhibitor, single point] | –
2 | Cc1ccc2cc(CCl)c(Cl)nc2c1C | active: 4.47 µM | –
3 | Cc1cccc(NC(=O)CCSc2ccc(Cl)cc2)c1 | inconclusive: 2.82 µM [inhibitor, full curve, poor fit] | –
4 | C#CCSc1nccc(-c2nn(-c3ccc(C)cc3)ccc2=O)n1 | inconclusive: 20 µM [inhibitor, partial curve, poor fit] | –
5 | O=C(NC(=S)Nc1ccc(N2CCCCC2)cc1)c1ccc2c(c1)OCCO2 | inconclusive: 31.6 µM [inhibitor, partial curve] | –
6 | O=C1CCCN1CCCN1C(=O)[C@@H]2C[C@@H](O)CN2C2(CN(Cc3c[nH]c4ccccc34)C2)C1=O | inconclusive: 25.1 µM [inhibitor, single point] | –
7 | O=C(O)Cn1ncc(=O)c2ccccc21 | inconclusive: 5.62 µM [inhibitor, full curve, poor fit] | –
8 | CC(=O)Nc1ccc(NC(=O)c2cccc3c2ccn3C)cc1 | inconclusive: 35.5 µM [inhibitor, single point] | –
9 | O=C(Nc1ccc2c(c1)CN(Cc1ccccc1F)C(=O)CO2)c1ccc(Cl)cc1 | inconclusive: 10 µM [inhibitor, full curve] | –
10 | CCCc1cc(=O)[nH]c(SCC(=O)Nc2sc3c(c2C(N)=O)CCCC3)n1 | inconclusive: 50.1 µM [inhibitor, partial curve, poor fit] | –
11 | CCN(c1ccc(-c2csc(-c3cccs3)n2)cc1)S(C)(=O)=O | inconclusive: 63.1 µM [inhibitor, partial curve, poor fit] | –
12 | Cc1c(O)ccc(-c2n[nH]c(C(=O)O)c2-c2nc3ccccc3s2)c1O | active: 35.5 µM | –
13 | O=C(c1cnccn1)N1CCCC(Cc2noc(-c3ccccn3)n2)C1 (stereo not drawn) | – | inactive: 30.2%
14 | Cc1cccc(-c2nc(SCc3cc(=O)c4cccc(F)c4[nH]3)n[nH]2)c1 | inconclusive: 56.2 µM [inhibitor, partial curve, poor fit] | –
15 | Cc1ccc(-n2nnnc2SCC(=O)N(Cc2ccco2)C2=CCCCC2)cc1C | inconclusive: 39.8 µM [inhibitor, partial curve, poor fit] | –
16 | COCCn1c(=N)c(C(=O)NCC2CCCO2)cc2c(=O)n3ccccc3nc21 (stereo not drawn) | inconclusive: 63.1 µM [inhibitor, partial curve, poor fit] | –
17 | CSC1CCCCC1(O)CSc1nc2c(cc1C#N)CCCC2 (stereo not drawn) | active: 7.08 µM | –
18 | Cc1ccc(SCc2noc(-c3c(C)noc3C)n2)cc1 | – | inactive: 43.3%

Single values from the list.
Under Potency, C#CCSc1nccc(-c2nn(-c3ccc(C)cc3)ccc2=O)n1 reads inconclusive: 20 µM [inhibitor, partial curve, poor fit]
Under Potency, O=C1CCCN1CCCN1C(=O)[C@@H]2C[C@@H](O)CN2C2(CN(Cc3c[nH]c4ccccc34)C2)C1=O reads inconclusive: 25.1 µM [inhibitor, single point]
